Measured values from PMC3005981 (Basic & clinical pharmacology & toxicology, 2010).

Molecular target: T1, CYP2B6 (Homo sapiens, UniProt P20813)
T1 sequence (P20813 1-491): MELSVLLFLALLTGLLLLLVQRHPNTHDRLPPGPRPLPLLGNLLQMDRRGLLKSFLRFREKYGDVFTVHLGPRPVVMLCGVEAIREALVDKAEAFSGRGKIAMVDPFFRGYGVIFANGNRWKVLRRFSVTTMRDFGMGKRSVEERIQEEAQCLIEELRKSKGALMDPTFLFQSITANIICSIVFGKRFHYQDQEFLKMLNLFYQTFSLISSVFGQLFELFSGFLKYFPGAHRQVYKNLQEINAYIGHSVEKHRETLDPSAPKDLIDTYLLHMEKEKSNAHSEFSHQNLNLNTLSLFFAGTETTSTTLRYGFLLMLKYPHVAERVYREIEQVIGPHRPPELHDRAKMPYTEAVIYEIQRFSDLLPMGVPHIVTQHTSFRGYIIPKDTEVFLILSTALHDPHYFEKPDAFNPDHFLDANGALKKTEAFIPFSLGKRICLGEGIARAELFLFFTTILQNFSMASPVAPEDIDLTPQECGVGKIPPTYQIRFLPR
Assay: in vitro
Conditions: recombinant enzyme, Supersome

Compound `Cc1ccccc1C(OCCN(C)C)c1ccccc1` (centres unmarked) [Orphenadrine, orphenadrine] has an inhibition at 15 min, 100 µM (% Inhibition of (R)-EDDP production) of 44.9% and an inhibition at 15 min, 100 µM (% Inhibition of (S)-EDDP production) of 43%.
